“Also recorded” adds a separate entry of the source. Like-named read-outs stand apart in the source and are kept apart here. At least one structure is not confirmed: it was looked up by name or label, or the drawing left a doubt.
Tests used:
T cells [1] = test: T cell activation by anti-CD3/CD28 DynaBeads, CD25/CD69/4-1BB expression by flow cytometry; details: for TCR signaling activation (CD25, CD69, 4-1BB expression): anti-CD3/CD28 beads
Source text: The inventors pre-treated T cells with dasatinib or DMSO for 5 hr, then activated T cells with anti-CD3/CD28 DynaBeads for 24 hr, and then detected the expression of activation molecules CD25, CD69 and 4-1BB by flow cytometry.
In order to verify the tolerance of the LCK-T316I mutation to the function of dasatinib, the inventors carried out experimental verification on the T cells with LCK edited with different sgRNA lengths prepared in Example 2.
The inventors isolated CD3-positive T cells from human peripheral blood and divided them into eleven portions for processing, with 1e5 cells in each portion. One of these portions was not treated with dasatinib, anti-CD3/CD28 DynaBeads were not added to activate TCR, and this portion was as the initial control group; the other 10 portions of cells were pretreated with different concentrations of dasatinib for 4 hr, ten concentrations ranging from 0 nM to 50 nM were set, and then anti-CD3/CD28 DynaBeads were added to activate TCR signals overnight. On the second day, the expression of CD25, CD69 and 4-1BB activation signals was detected, and the activation of TCR signals was detected. Two replicates were set for each group of experiments.
The inventors divided each of the three groups of edited cells into 6 sub-groups and cultured them in a flat-bottomed 96-well plate. Each sub-group contained two technical replicates, and each well contained 0.15×10^6 cells. […] Subsequently, the cells were cultured for 18 hr. The activated T cell surface marker molecule 4-1BB was detected by using the APC-labeled murine IgG monoclonal antibody, and the activated T cell surface marker molecule CD25 was detected by using the PE-labeled murine IgG monoclonal antibody, and the activated T cell surface marker CD69 was detected by FITC-labeled murine IgG monoclonal antibody.
The inventors conducted research using two groups of T cells (CBE3 control group and Km edited group) in the above experiments. The experimental procedure is basically the same as the above-mentioned experiment (FIG. 32B). The two groups of edited cells were each divided into 7 sub-groups and cultured them in a flat-bottomed 96-well plate. Each sub-group contained two technical replicates, and each well contained 0.15×10^6 cells. […] Subsequently, the cells were cultured for 18 hr. The activated T cell surface marker molecule 4-1BB was detected by using the APC-labeled murine IgG monoclonal antibody, and the activated T cell surface marker molecule CD25 was detected by using the PE-labeled murine IgG monoclonal antibody, and the activated T cell surface marker CD69 was detected by FITC-labeled murine IgG monoclonal antibody.

anti-CD19-CAR-T cells = test: CD107a translocation of anti-CD19-CAR-T cells co-incubated with target cells; format: cell-based, human; details: CBE3 control group and LCK-sgRNA12 group, 100 nM dasatinib, Nalm6
Source text: First, the inventors edited the prepared anti-CD19 CAR-T by electroporation with the CBE3 protein, the RNP complex of CBE3 and LCK-sgRNA12, and the RNP complex of CBE3 and LCK-sgRNA16 respectively, to achieve three different editing treatments.

anti-BCMA-CAR-T cells = test: CD107a translocation of anti-BCMA-CAR-T cells co-incubated with target cells; format: cell-based, human; details: CBE3 control group and LCK-sgRNA12 group, 100 nM dasatinib, U266B1 and RPMI-8226
[2] = system: CD19/BCMA bispecific CAR-T cells; test: CD107a translocation of CD19/BCMA bispecific CAR-T cells; format: cell-based, human; details: CAR-T cells without LCK-T316I editing, 100 nM dasatinib, U266B1 and Raji
Source text: The inventors edited the prepared CD19/BCMA dual-target CAR-T by electroporation with the CBE3 protein, the RNP complexes (18 nt and 21 nt) of CBE3 and LCK-sgRNA12, and the RNP complexes (18 nt and 21 nt) of CBE3 and LCK-sgRNA16 respectively, to achieve three different groups of editing treatments. […] These target cells include U266B1 (BCMA positive), Raji (CD19 positive), K562 (negative control), allogeneic T cells (negative control) and blank Buffer control (negative control).

anti-BCMA CAR-T cells [3] = test: In vitro proliferation of anti-BCMA CAR-T under repeated U266 stimulation; format: cell-based, human; details: CBE3+sg16 group, 100 nM dasatinib, U266 10:1 every 3 days, Day 12
NK cells = test: CD107a release of NK cells activated by K562; format: cell-based, human; details: repeat
Experimental: The inventor used Miltenyi human NK sorting magnetic beads to separate NK cells from human peripheral blood, and used DAKEWE NK medium to culture and expand them in vitro. On Day 8, a population of NK cells with more than 95% having positive CD56 expression could be obtained. These NK cells were taken out and treated with 0 nM, 100 nM and 200 nM dasatinib respectively for 24 hr, and then divided into two groups, one of which was not activated, and the other group was stimulated with MHC-class I molecule-deficient K562 cells for 5 hr. Then, the CD107a release of NK cells were detected in both of them.
The inventors isolated NK cells from human PBMCs, and then cultured and differentiated them in NK medium to obtain CD56-positive NK cells with a purity higher than 95%. […] Two replicates were set for each group. anti-CD107a antibody and monensin were added while carrying out activation, and after co-incubation for 6 hr, the CD107a release of CD56-positive NK cells was detected by flow cytometry. […]
In order to repeatedly verify that the inhibition of NK cell activation function by dasatinib has an extended effect, the inventors repeated the above experiment. […] After 4 hr of co-incubation, CD107a release from CD56 positive NK cells was detected. […]

allogeneic T cells = test: Mixed lymphocyte reaction of CD5-UCART with allogeneic (simulated host) T cells; format: cell-based, human; details: Example 14, control group UCAR-T, 100 nM dasatinib
T cells [4] = test: UCAR-T preparation process with dasatinib added after editing; format: cell-based, human; details: 100 nM DS, Day 8 of culture
Experimental: The inventors isolated CD3-positive T cells from PBMCs from three different donors using PanT kits, knocked out the B2M and TRAC genes, and performed LCK-T316I editing on the cells. Then the cells were divided into two portions, to one portion, 100 nM DS was added (experimental group), and to the other portion, a corresponding amount of DMSO was added as a control (control group). After 2 hr, to the experimental group and the control group, T cell activators (CD2/CD3/CD28, 25 ul/1M/mL) were added. After 48 hr of activation, the cells were infected with the anti-CD19 CAR molecule through lentivirus infection, and the medium was replaced 24 hr after the virus infection, and DS or DMSO was removed at the same time.

[5] = system: normal human T lymphocytes; details: on withdrawal of dasatinib; cited from earlier work
anti-BCMA CAR-T cells [6] = test: Luciferase killing assay of anti-BCMA CAR-T on luciferase-positive target cells; details: CBE+sg16 (LCK-T316I) CAR-T, 100 nM dasatinib 12 hr, effector-to-target 1:1, 24 hr
[7] = T cells, 100 nM or 1000 nM dasatinib 5 hr, then magnetic beads 24 hr

## Cc1nc(Nc2ncc(C(=O)Nc3c(C)cccc3Cl)s2)cc(N2CCN(CCO)CC2)n1 [dasatinib]
T cells [1]; T cells with LCK-T316I mutation (groups 06-08), 100 nM dasatinib
  TCR signaling activation (CD25, CD69, 4-1BB expression): could still be activated
T cells [1]; [7]
  percentage of CD25 and 4-1BB double-positive cells on activation: could not up-regulate
  percentage of CD25 and CD69 double-positive cells on activation: could not up-regulate
T cells [1]; cells without LCK editing (MockT, groups 01-05), 100 nM dasatinib pretreatment 7 hr
  TCR signaling activation (CD25, CD69, 4-1BB expression): completely inhibit
anti-CD19-CAR-T cells
  CD107a release: significantly reduced
anti-BCMA-CAR-T cells
  CD107a release: significantly reduced
[2]
  activation to release CD107a: could not be activated
anti-BCMA CAR-T cells [3]
  total number of cells: largest
NK cells; 10 nM and 25 nM pretreatment, adjusted to 10 nM
  activation of NK: almost completely inhibited
NK cells; 50 nM pretreatment, reduced to 10, 20, 30, 40, 50 nM
  CD107a release: no significant release of CD107a
Allogeneic T cells
  killing of host T cells by UCAR-T: inhibited
T cells [4]
  efficiency of LCK-T316I versus DMSO group: significantly enrich
T cells [4]; listed as DS
  efficiency of LCK-T316I versus DMSO group: significantly higher
CD5-UCAR-T cells; CD5-CAR-T, repeat, 25 nM pretreatment, adjusted to 10 nM
  activation by Jurkat to release CD107a: sufficient to inhibit
CD5-UCAR-T cells; CD5-CART, repeat, 50 nM pretreatment, reduced to 10, 20, 30, 40, 50 nM
  CD107a release: no significant release of CD107a
CD5-UCAR-T cells; control CD5-UCAR-T, 25 nM pretreatment, adjusted to 10 nM
  activation by target cells and CD107a release: enough to inhibit
CD5-UCAR-T cells; sg12 control CD5-UCART, 50 nM pretreatment, reduced to 15, 25, 35, 50 nM, Jurkat 4 hr
  CD107a release: no release of CD107a
CD5-UCAR-T cells; sg16 (LCK-T316I) CD5-UCART, 25 nM pretreatment, concentration reduced
  CD107a release: high level of CD107a release
CD5-UCAR-T cells; sg16 (LCK-T316I) CD5-UCART, 50 nM pretreatment, reduced to 15, 25, 35, 50 nM
  CD107a release: still high level of release of CD107a
[5]
  reversibility of inhibition of T cell function: reversible
anti-BCMA CAR-T cells [6]
  luciferase value of RPMI-8226 versus unedited groups: significantly lower; also recorded: decreased significantly
